Data as given in PubChem BioAssay AID1259308 (NCATS, 2017).
In all, the deposit lists about 59,000 reagents; below is a random part of them. Of all reagents, about 1,510 (2.6%) are marked active. 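Calls use total luciferase alone and ignore viability, so some active siRNAs may act by altering cell number.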 A number with no mark means an inactive call. Reagents against one gene are numbered here. Further read-outs or replicates are left out here. Reagent sequences are not shown.

Aim: 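Candidate targets for better recombinant protein yield in mammalian cells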 (primary screen)
System: human HEK293 embryonic kidney cells stably expressing firefly luciferase (HEK-CMV-Luc2-Hygro)
Knock-down reagent: single siRNA against human genes, 0.8 pmol siRNA per well
Timing: 72 h
Measured: 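Reporter luminescence and viable-cell signal on separate replicate plates, given as percent of non-targeting control and median/MAD z-scores, plus per-cell luciferase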
Reading the numbers: total luciferase, z-score: higher = more reporter protein produced
Call rule: 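An siRNA counts as active if its total luciferase robust z-score exceeds 3; genes with two or more such siRNAs out of three were retested with fresh siRNAs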
Meaning of the calls: active = raised luciferase; inactive = no rise

Against NKAIN3 #1, the entry reads total luciferase, z-score -1.22.
With knock-down of NKAIN3 #2, the screen gave total luciferase, z-score -1.2.
NKAIN3 #3 scored total luciferase, z-score 3.81 (active).
PTGS1 #1 showed total luciferase, z-score 0.362.
For PTGS1 #2 the deposit lists total luciferase, z-score 0.291.
After knock-down of PTGS1 #3, the screen gave total luciferase, z-score -0.347.
With knock-down of INSYN1 #1, the record shows total luciferase, z-score 0.113.
Depletion of INSYN1 #2 gave: total luciferase, z-score 1.83.
Against INSYN1 #3, the entry reads total luciferase, z-score 0.373.
With knock-down of MIR99AHG #1 the results were total luciferase, z-score -1.66.
After knock-down of MIR99AHG #2 the results were total luciferase, z-score -1.76.
With knock-down of MIR99AHG #3 the results were total luciferase, z-score -1.09.

4 entries from above, ordered by “total luciferase, z-score”, descending.
NKAIN3 #3 → total luciferase, z-score: 3.81 (active)
PTGS1 #1 → total luciferase, z-score: 0.362
NKAIN3 #2 → total luciferase, z-score: -1.2
NKAIN3 #1 → total luciferase, z-score: -1.22

The listing continues:
After knock-down of CRYBA1 #1 the results were total luciferase, z-score 4.23 (active).
Against CRYBA1 #2, the entry reads total luciferase, z-score 1.14.
CRYBA1 #3 scored total luciferase, z-score 0.472.
BID #1 showed total luciferase, z-score -1.86.
After knock-down of BID #2 the results were total luciferase, z-score 0.92.
BID #3 showed total luciferase, z-score 1.58.
For SLC25A45 #1 the deposit lists total luciferase, z-score 0.187.
For SLC25A45 #2, the entry reads total luciferase, z-score 2.67.
For SLC25A45 #3, the entry reads total luciferase, z-score -0.12.
MUC17 #1 gave total luciferase, z-score -0.922.
MUC17 #2 gave total luciferase, z-score -0.967.
After knock-down of MUC17 #3 the results were total luciferase, z-score -0.339.
Knock-down of LRRC61 #1 gave: total luciferase, z-score 1.97.
For LRRC61 #2 the deposit lists total luciferase, z-score -1.87.
Knock-down of LRRC61 #3 resulted in: total luciferase, z-score -1.34.
After knock-down of DNAH17 #1 the results were total luciferase, z-score -0.0853.
DNAH17 #2 showed total luciferase, z-score 0.646.
DNAH17 #3 gave total luciferase, z-score -0.357.
OSBPL10 #1 showed total luciferase, z-score -2.01.
After knock-down of OSBPL10 #2, the record shows total luciferase, z-score 0.187.
After knock-down of OSBPL10 #3, the record shows total luciferase, z-score -0.557.
